These are yes or no findings as the source states them, for the method shown. Some binding calls cover weakened binding; strength is not graded here.
Molecular target: LexA-UNC-119 (C. elegans) (UniProt Q10658)
Assay: two-hybrid; LexA baits and GAD preys in strain L40; ONPG liquid β-galactosidase assays and auxotrophic (-His) growth assays

Sequences of proteins named here, by UniProt entry; tags and fusion partners are left off.
UniProt Q10658: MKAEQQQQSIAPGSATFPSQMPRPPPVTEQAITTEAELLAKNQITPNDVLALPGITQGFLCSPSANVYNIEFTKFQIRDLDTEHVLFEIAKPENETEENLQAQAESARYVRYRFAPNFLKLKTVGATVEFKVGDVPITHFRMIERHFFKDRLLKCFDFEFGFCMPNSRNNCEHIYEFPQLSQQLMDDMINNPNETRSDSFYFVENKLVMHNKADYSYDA

binding: binds
B1: GAD-ARL-3 (full length) (protein, UniProt O45379 1-184)
chain: MGLIDVLKSFKSPSGREIRILLLGLDNAGKTTILKQLSSEDVQHVTPTKGFNVKTVAAMGDIRLNVWDIGGQRSIRPYWSNYYENIDTLIFVIDSNDKKRFDEMNIELGELLDEEKLRKVPVLIFANKQDLVTAASSEEITRKLNLDLLRDRTWHIQACSALKNEGINDGITWVASNLKPASKK

Source: publication PMC1561584
